Experimental data taken from publication PMC4491177, “Co-translational capturing of nascent ribosomal proteins by their dedicated chaperones” (Nature Communications, 2015).
No constants are given. Whether binding was seen depends on the method and setting. Binding seen in cells or lysates may run through a third protein. Binding can be weak; no strength is given. Where a sequence is shown, tags or fusion partners need not be part of it.

Target: T1, ctRpl10(1–20)-(His)6 (Chaetomium thermophilum)
T1 sequence: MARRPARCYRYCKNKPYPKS
Assay: pull-down; (His)6-tagged Rpl10 variant and Sqt1 variant co-expressed in E. coli from pETDuet-1; Ni-NTA agarose purification from the soluble extract; 50 mM Tris-HCl (pH 7.5), 200 mM NaCl, 1.5 mM MgCl2, 5% glycerol, 0.1% NP-40, 4 °C; imidazole eluate on SDS-PAGE, Coomassie and western blot

binding: binds
Substance: ctSqt1 (Chaetomium thermophilum)
